In PubChem BioAssay AID1508600 (Functional Genomics Laboratory (NCATS/FGL), 2020):
The whole screen tested about 53,000 sequences, of which about 3,700 (7%) were called active.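 Rule for the calls: active = gene knockdowns whose robust z-score for IL-1 alpha signal is at least 2 or at most -2, so actives lie on both sides; inactive = the rest.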 The list shows a part of the results.

assay: Components of the Cytosolic LPS Sensing Pathway: Gene Identification via Genome-wide siRNA Screen; settings: RAW264.7 macrophages, IL-1a HTRF, actives lie on both sides, screened at 100 nM (by protocol), cells primed 5 h with Pam3CSK4 first;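 note: robust z of the log signal after scaling to non-targeting control siRNA wells of the plate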
Summary of the method: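 Read-out: IL-1a HTRF on supernatant, divided by plate negative-control median ×100, log-transformed and converted to robust z-score. Cells were RAW264.7 given 100 nM siRNA, Pam3CSK4-primed 5 hours, then LipidA-transfected 24 hour.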

Row | Sequence | z-score
1 | CCCGGAGGCUUCAAAACAATT against Hsd17b2 | inactive: -0.161
2 | CGUAGUGCGCUUCAUUCAATT against Ufsp2 | inactive: 1.99
3 | GGCGCAUGCUGGAUAAACATT against Dhx58 | inactive: -1.14
4 | GGAGCAAGUCAAGUCUCAUTT against Fcho2 | inactive: 0.551
5 | GAAGAUGACAACCAAACGCTT against Ucn3 | inactive: 0.122
6 | GGAAACAAUAAAUGUUCCCTT against Ldlrap1 | inactive: -1.35
7 | CCAAACAAUAGACAUGCUUTT against Npy1r | inactive: 0.178
8 | GUCAACUUGCUGCCAAGACTT against Ifna2 | inactive: 0.286
9 | GGAAGAUGAUGUUUUAGGUTT against Pde7a | inactive: 0.271
10 | GCAGUGAUUCAGUUAUAACTT against Gypc | inactive: -0.0354
11 | GGGAAAAGGUCAGUGAAGUTT against Fam219b | inactive: -0.305
12 | CGGUGUAAGUCUGGCUUUGTT against Tmem60 | inactive: 1.2
13 | GGAUGAAGACCUUGAACGGTT against Slc28a3 | inactive: 1.48
14 | GGCAGAGAUUGAGAGCAAGTT against Palm | active: 2.28
15 | GCUUCAGCCAUUUCACCUUTT against Rnaseh2c | inactive: 0.108
16 | GGUAACUAUGAAGAGAUCATT against Neu2 | inactive: 0.312
17 | CCAAACAGUUCACAAUUCCTT against Rrp8 | inactive: -0.182
18 | GGCCAUGUUCGAGCAAACUTT against Wdr70 | inactive: -0.829
19 | GGGCAGGUGGAUGUGGAAATT against Ryr2 | inactive: 0.546
20 | GGUUCAUUGUGUCUCUGGCTT against Grk1 | inactive: -0.378
21 | GCAUCUCUAAUGUCCAGCATT against Slc5a9 | inactive: -0.715
22 | GGGCAAAAGCUGUUACAAGTT against Ahrr | inactive: -0.0958

Row | Sequence | z-score
23 | CCACAAGUGCUUCAUGGGUTT against Rims3 | inactive: 0.299
24 | GGGCUUUUUCUUGUUUUUCTT against Brk1 | inactive: 0.618
25 | GGAAAUGGAGAAAUAUGCATT against Plod3 | inactive: -0.167
26 | CCUUCUAAGAGAAAAACGUTT against Eps15 | inactive: 0.198
27 | GGUCAACAAGGGCUUAUAGTT against Rpl22 | inactive: -0.435
28 | GGUGACCAAUCUGUAUGUUTT against Madcam1 | inactive: 0.18
29 | GGAGGAGAUUGUCCAGAAATT against Ecm1 | inactive: 1.2
30 | GGAUCUACGAAAAAGAUGATT against Crygb | inactive: -1.44
31 | CCCAAGCAACCCUUAUCAATT against Mcee | inactive: -0.315
32 | GGAAGAAAAACAGAGGAGATT against Cts7 | inactive: -0.877
33 | GGAAUCAUCUUUGUGGAGATT against Nudt22 | inactive: -0.733
34 | GCUUAUGCAAUAUGAUAACTT against Gnpda2 | inactive: -0.347
35 | GGUAUCUUCAAGUACAUGATT against Zfp959 | inactive: 0.92
36 | GGGUCAUGUCUGAAUUAAATT against Shld2 | inactive: -0.68
37 | GGGAGUUAAAUACCUGUGUTT against Dusp22 | inactive: -0.0625
38 | GGAGAAUGAGAUCAACCUGTT against Pah | inactive: 0.618
39 | GGGCCAAGCAAUUUGGUAGTT against S100a14 | inactive: 1.31
40 | CCAGAUACUUCUCAUGGCGTT against Dipk1b | inactive: -0.0671
41 | GAACGUGCAGCUGACAGAGTT against Ppp1ca | inactive: -1.03
42 | CCUCAGGUAUCCCGCUUUATT against Stk24 | inactive: 0.442
43 | GGUUCGAUGUCCAGUCACUTT against Ppp2ca | inactive: -1.41
44 | GCAGGGCCUCUGUUUUUUATT against 1190005I06Rik | inactive: -1.84

Row | Sequence | z-score
45 | GGAGUUGCCUCUGAAGACCTT against Ccm2l | inactive: 0.797
46 | GCAACAAGUUCCCAGUAUCTT against Dnah1 | inactive: 0.725
47 | CGCACUCUUACUCACCAGATT against Tmem135 | inactive: 0.437
48 | GGUGUUAAGUCACAAAAUGTT against Meis2 | inactive: 1.59
49 | CGGGCAUUUACGAAUCAAGTT against Lmln | inactive: 0.813
50 | GGUAAACUACGAAGAGUUUTT against Calm2 | inactive: 1.09
51 | GGAAAUGUUAAGUGCCUUGTT against Mrpl53 | inactive: -0.0807
52 | GCCGCUAACUAAAGUCAAATT against Aloxe3 | inactive: 1.15
53 | GCAAACUAUAGGUGCGUUGTT against Dscc1 | inactive: 0.885
54 | CGAUGAAGUAUCAAUUAGATT against Usp1 | inactive: 0.165
55 | GGGAAAGUUGGAGAGUACGTT against Hoxa1 | inactive: -0.626
56 | GCCAUGGAAAGAGCCUUGATT against Ighg3 | inactive: -0.323
57 | GGUCAAUGAACCAUCCCACTT against Padi6 | inactive: -0.983
58 | GGAAGACUUGUUCAACUGGTT against Grwd1 | inactive: -0.88
59 | CCUCUGUCUAAGAUCAGUUTT against Trpm2 | inactive: 0.102
60 | GGCCACUGAUCAACUAAAGTT against Zfp110 | active: 2.27
61 | GGAACAACUCUUAUGUAUUTT against B3gat1 | inactive: 0.000911
62 | GCCUGCCUUGGAAAAGUCATT against Akr1c13 | inactive: -0.213
63 | CGUGAAUGACGACCCUCUATT against Zfp456 | inactive: -0.273
64 | CCUUGGAAUGCAUAGCCAATT against Sdk1 | inactive: 0.285
65 | GGAGACCUUUCUGAAAGUCTT against Serinc5 | inactive: 0.423
66 | CCUGAGUAUUAAAGUUUAGTT against Nelfa | inactive: -0.702

Row | Sequence | z-score
67 | GGACUCCAACCACACUAUCTT against Rab4b | inactive: 0.847
68 | GCACUGGAAUCAAACCAUCTT against Ppp2r5b | inactive: 0.444
69 | GGAUGGGUUGAAUUGUUUGTT against Serpina7 | inactive: 0.675
70 | GCAGAUCUCUUACGUCAUCTT against Adam9 | inactive: 0.178
71 | GUCUUCUUACCCUACUGUGTT against Olfr1178 | inactive: 0.34
72 | GGCCGUAUCUGUCUCCUUUTT against Defa1 | inactive: 0.138
73 | GGCUUUUUCUCACCAGCACTT against Sin3a | inactive: -0.0919
74 | GACAUAUUUUCAUCACUGATT against Vmn1r17 | inactive: -0.903
75 | GGAUCUCGUGGGCUACAUUTT against Slc47a1 | inactive: 0.688
76 | GGAGCACCAGAGUUAAAACTT against Bcam | inactive: -0.0994
77 | CCCUAAUCUGGUGAACGAUTT against Mfap5 | inactive: -1.05
78 | CCACUACUAGAAUCCUAAATT against Sdc3 | inactive: 0.748
79 | GCCUUGGACUACUUUACACTT against Tbc1d2b | inactive: -1.2
80 | GGGCUGGCACUGGAAAUAGTT against Pih1d1 | inactive: 0.159
81 | GGGUUUUCCAUGAUCUAUUTT against Nup188 | inactive: -0.436
82 | CGUGUUUAGGAAAAAUUGUTT against 2510039O18Rik | inactive: -0.398
83 | CCGUUUCAGUCAAAUCCAUTT against Arid4b | inactive: 0.365
84 | CGGGACAAGUCCAAAUUGUTT against Rnase2b | inactive: 0.646
85 | CCAAGCAUUCGAGUAUGUUTT against Ctsj | inactive: 1.07
86 | GCACUCUUUUGUGCCACUUTT against Adora3 | inactive: 1.02
87 | GGGAAAUGCUUCUAAAAAUTT against Pcdhb11 | inactive: 0.377
88 | GGCCAUAACGAAGGAUGAATT against Cdv3 | inactive: 0.373

Nos. 70–71 from above:
Row | Sequence | z-score
70 | GCAGAUCUCUUACGUCAUCTT against Adam9 | inactive: 0.178
71 | GUCUUCUUACCCUACUGUGTT against Olfr1178 | inactive: 0.34

(next part)

Row | Sequence | z-score
89 | GCUUUUUCUGGAAACAGCUTT against Gpr89 | inactive: -1.26
90 | GGCAACCUUGUCUAUUCACTT against Rrp7a | inactive: 0.343
91 | CCAGCAAAAAUCGAUACUUTT against Plcg2 | inactive: 0.152
92 | GCCAUCAACGUAUCUUACUTT against 4930548H24Rik | inactive: -0.164
93 | GGCUCAUCGAGAUUAACCCTT against Carns1 | inactive: 0.195
94 | GGCAAAAUUAGCAUCAAAGTT against Slc22a3 | inactive: 0.577
95 | GGGCUUAAUUAUGUCUUUUTT against Ceacam19 | inactive: -0.528
96 | CCACUUGGAUGCAGUGAAGTT against Ehmt1 | inactive: 0.0126
97 | CGGAUGAACAUUUACCAAGTT against Dpy19l3 | inactive: 0.796
98 | GGAGAUUCUGUAGGUUAUUTT against Lrat | inactive: 0.0632
99 | CGUAGAAGUUGAUGAGUCATT against Numb | inactive: -1.05
100 | GGAUAAUCAGGAAGGUACUTT against Blmh | inactive: 0.0997
101 | GGGCUUGGUUUUGGACAUUTT against Fcsk | inactive: 1.41
102 | GCGACAUCUACAAGUUCAUTT against Foxb2 | inactive: -0.326
103 | GGGAUUCAGAUUCUAUCAGTT against Vmn2r-ps54 | inactive: 0.17
104 | GGAAGAGGAAAUCACCACATT against Clec11a | active: -2.16
105 | CCUAAGUAGUGUUUGAACUTT against B530045E10Rik | inactive: -0.721
106 | GGUCCAAUUAACCUAUCUUTT against Ppip5k2 | active: -2.06

Another view of part of the listing above:

| Row | Sequence | z-score |
| --- | --- | --- |
| 58 | GGAAGACUUGUUCAACUGGTT against Grwd1 | inactive: -0.88 |
| 59 | CCUCUGUCUAAGAUCAGUUTT against Trpm2 | inactive: 0.102 |
| 60 | GGCCACUGAUCAACUAAAGTT against Zfp110 | active: 2.27 |
